According to patent US20170172994A1, “COMPOSITIONS AND METHODS FOR TREATING BACTERIAL INFECTIONS” (WOCKHARDT LIMITED, priority 2013, published 2017):
For some of these results: At least one structure is not confirmed: it was looked up by name or label, or the drawing left a doubt. Some entries share one result that the patent states for a list of compounds.

Protein sequences, listed by entry. Tags and fused reporters are not part of them.
UniProt Q9X6V3, entry or part of it: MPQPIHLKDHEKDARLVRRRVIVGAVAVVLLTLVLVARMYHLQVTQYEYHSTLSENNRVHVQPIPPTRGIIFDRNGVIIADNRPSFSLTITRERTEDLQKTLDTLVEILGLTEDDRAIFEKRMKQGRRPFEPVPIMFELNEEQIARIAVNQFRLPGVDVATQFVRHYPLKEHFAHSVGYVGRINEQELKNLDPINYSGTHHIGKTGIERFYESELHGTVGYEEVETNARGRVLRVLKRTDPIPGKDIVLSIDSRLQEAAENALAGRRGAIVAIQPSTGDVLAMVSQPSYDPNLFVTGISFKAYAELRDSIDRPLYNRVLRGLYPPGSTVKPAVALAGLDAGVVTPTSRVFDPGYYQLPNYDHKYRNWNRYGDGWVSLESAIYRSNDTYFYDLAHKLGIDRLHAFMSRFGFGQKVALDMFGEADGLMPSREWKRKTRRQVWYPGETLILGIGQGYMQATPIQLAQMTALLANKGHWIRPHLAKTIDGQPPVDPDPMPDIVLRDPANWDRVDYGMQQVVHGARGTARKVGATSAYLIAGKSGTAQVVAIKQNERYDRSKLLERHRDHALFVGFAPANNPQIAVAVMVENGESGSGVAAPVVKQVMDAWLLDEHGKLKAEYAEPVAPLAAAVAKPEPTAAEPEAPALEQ

Assays:
Pseudomonas PBP 2 = Pseudomonas PBP 2 (Pseudomonas aeruginosa, UniProt Q9X6V3); test: PBP binding assay (Bocillin FL competition)
[1] = system: ESBL enzymes from K. pneumoniae S48 producing Metalo betalactamase (NDM4) and Class A (CTX-M, SHV, TEM) beta-lactamase; test: Beta-lactamase stability study (crude enzyme extract, then drug diffusion assay on E. coli ATCC 25922); format: biochemical; conditions: for Inhibition zone diameter after treatment with beta-lactamase enzyme: 40 μg/ml, zone on E. coli ATCC 25922
Procedure: Next, the beta-lactamase stability of some of these compounds was evaluated. In a typical stability study, ESBL enzymes from K. pneumoniae S48 producing Metalo betalactamase (NDM4) and Class A (CTX-M, SHV, TEM) beta-lactamase were isolated from freshly grown culture by 5 repetitive cycles of freeze and thaw in liquid nitrogen. […] After the stipulated incubation duration, the test compounds were extracted from the reaction mixture by the addition of 0.5 ml of Acetonitrile in 1:1 ratio (final concentration of test compound—40 μg/ml) and centrifuged at 12000 rpm for 2 min to separate precipitated protein. The activity of test compounds was measured from the supernatant by performing microbiological drug diffusion assay. For drug diffusion assay, Muller-Hinton Agar (MHA) seeded with E. coli ATCC 25922 was poured on to a bioassay plate placed on a flat surface and allowed to solidify. Appropriate concentration of the standalone and enzyme treated test compound dilutions were added to 6 mm wells cut with the help of a borer. The antibacterial activity of the test compounds was measured in terms of zones of inhibition appearing after 18-24 hours of incubation at 37° C. Measurement of diameter of zone of inhibition was undertaken to the nearest whole value with the help of ruler.

[2] = system: K. pneumonia S48 expressing multiple ESBLs including MBL (NDM4) and Class A (CTX-M, SHV, TEM); format: cell-based; conditions: K. pneumoniae S48; Table 8
Procedure: Log phase cultures were diluted to desired inoculums in flasks with MHB, containing various drug concentrations. Flasks were incubated at 35° C. in orbital shaker with rotational speed of 125 rpm. […] Plates were incubated for 24 hours at 35° C. and colonies were enumerated to determine the colony forming units (CFU) per ml volume.

O=C(NNC(=O)[C@@H]1CC[C@@H]2CN1C(=O)N2OS(=O)(=O)O)[C@@H]1CCCNC1 [Compound of Formula (III), trans-(2S,5R)-sulfuric acid mono-[2-(N′—[(R)-piperidin-3-carbonyl]-hydrazino Carbonyl)-7-oxo-1,6-diaza-bicyclo[3.2.1]oct-6-yl] Ester]
IC50 (Pseudomonas PBP 2): ≤ 2.55 µM

C[C@@H](O)[C@H]1C(=O)N2C(C(=O)O)=C(SCCN=CN)C[C@H]12 [Imipenem]
Inhibition zone diameter after treatment with beta-lactamase enzyme ([1]; 0 hour incubation at 37° C.): 22 mm | Inhibition zone diameter after treatment with beta-lactamase enzyme ([1]; 1 hour incubation at 37° C.): 14 mm | Inhibition zone diameter after treatment with beta-lactamase enzyme ([1]; 2 hours incubation at 37° C.): 0 mm | Inhibition zone diameter after treatment with beta-lactamase enzyme ([1]; 24 hours incubation at 37° C.): 0 mm | Stability to beta-lactamase (in words) ([1]; carbapenem hydrolyzing metallo beta-lactamase, up to 24 hours): not stable to the beta-lactamase | Bactericidal action (in words) [2]: Inconsistent cidal response
